Measurements reported in PubChem BioAssay AID743454 (Peter MacCallum Cancer Centre, 2014)
This is an unselected part of about 18,000 deposited reagents. 450 of all reagents (2.5%) were called active. 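Single biological run; no consistent viability z cut-off exists, so the class columns, not z-scores, define the calls.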 Unmarked entries are inactive.

Aim: 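Search for knock-downs that restore vorinostat killing in resistant colon cancer cells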 (primary screen)
Cells: human HCT116-VR colon cancer cells, selected for vorinostat resistance
Reagents: siRNA pool against human genes, 40 nM siRNA pool
Timing: vorinostat for 24 h, read-out about 72 h after transfection
Conditions: vorinostat at 2.5 µM final
Read-out: 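Two measures, CellTiter-Fluor viability and luminescent caspase 3/7 activity, each as fold change against same-plate mock wells, mean of duplicates, then screen-wide robust z-score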
Scale: viability robust z-score: higher = more viable cells than screen typical; caspase robust z-score: higher = more caspase 3/7 activity than screen typical
Rule for the call: 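Hits are knock-downs in viability class RV1/RV2 or caspase class CA1/CA2, excluding ones that killed cells in the no-drug cell-count arm; hits then retested with single siRNAs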

gene,viability hit class,caspase hit class,viability robust z-score,caspase robust z-score
VASH2 (vasohibin 2),no change,no change,0.51,0.06
CARM1 (coactivator associated arginine methyltransferase 1),no change,no change,-0.89,4.13
LMNB1 (lamin B1),no change,no change,-2.13,-0.52
OR4C16 (olfactory receptor family 4 subfamily C member 16),no change,no change,0.16,-0.03
SFPQ (splicing factor proline and glutamine rich),no change,no change,-1.73,1.92
LTBP4 (latent transforming growth factor beta binding protein 4),no change,no change,-0.08,0.39
VPS18 (VPS18 core subunit of CORVET and HOPS complexes),no change,no change,-0.78,-0.86
DEPDC4 (DEP domain containing 4),no change,no change,0.74,1.94
KCNK7 (potassium two pore domain channel subfamily K member 7),no change,no change,0.25,2.1
RPE65 (retinoid isomerohydrolase RPE65),no change,no change,-0.47,-0.49
KRT79 (keratin 79),no change,no change,-0.64,2.26
ZNF91 (zinc finger protein 91),no change,no change,0.06,0.58
GFRA4 (GDNF family receptor alpha 4),no change,no change,-0.82,1.94
CHST4 (carbohydrate sulfotransferase 4),no change,no change,0.49,-0.11
VASP (vasodilator stimulated phosphoprotein),no change,no change,-0.38,-1.21
CRTC1 (CREB regulated transcription coactivator 1),no change,no change,-1.38,2.31
UTP25 (UTP25 small subunit processome component),no change,no change,-2.06,3.41
EFHC1 (EF-hand domain containing 1),no change,no change,-0.41,2.31
"POLD2 (DNA polymerase delta 2, accessory subunit)",no change,no change,-0.37,1.07
MS4A15 (membrane spanning 4-domains A15),no change,no change,-1.66,2.66
F7 (coagulation factor VII),no change,no change,-4.2,4.39
MSH3 (mutS homolog 3),no change,no change,-1.68,1.34
CSDC2 (cold shock domain containing C2),no change (active),CA2 (caspase activation),-0.46,5.25
CAMK2B (calcium/calmodulin dependent protein kinase II beta),no change,no change,0.4,2.7
TMEM31 (transmembrane protein 31),no change,no change,0.24,-1.18
ANKZF1 (ankyrin repeat and zinc finger peptidyl tRNA hydrolase 1),no change,no change,-1.9,0.17
HNRNPA0 (heterogeneous nuclear ribonucleoprotein A0),no change,no change,0.32,-0.38
DRC9 (dynein regulatory complex subunit 9),no change,no change,-1.21,0.59
RHBDD1 (rhomboid domain containing 1),no change,no change,0.26,-0.74
NMBR (neuromedin B receptor),no change,no change,-0.19,-0.86
STEAP1 (STEAP family member 1),no change,no change,0.74,-0.68
UBE2K (ubiquitin conjugating enzyme E2 K),no change,no change,-1,0.47
DSE (dermatan sulfate epimerase),no change,no change,0.28,-0.62
EFHD2 (EF-hand domain family member D2),no change,no change,-1.14,4.75
"CRKL (CRK like proto-oncogene, adaptor protein)",no change,no change,0.79,-0.66
GNRH1 (gonadotropin releasing hormone 1),no change,no change,0.56,0.01
HESX1 (HESX homeobox 1),no change,no change,-0.74,4.2
COL18A1 (collagen type XVIII alpha 1 chain),no change,no change,-0.21,-0.06
HBG2 (hemoglobin subunit gamma 2),no change,no change,1.48,0.56
LY6G5B (lymphocyte antigen 6 family member G5B),no change,no change,0.82,-0.77
LRRCC1 (leucine rich repeat and coiled-coil centrosomal protein 1),no change,no change,-0.94,0.48
ZHX2 (zinc fingers and homeoboxes 2),no change,no change,-0.48,-0.14
VSIR (V-set immunoregulatory receptor),no change,no change,-1.31,-0.15
DHX37 (DEAH-box helicase 37),no change,no change,-1.65,-1.38
PRMT8 (protein arginine methyltransferase 8),no change,no change,-0.94,-0.88
TULP3 (TUB like protein 3),no change,no change,0.36,-0.4
UNC80 (unc-80 subunit of NALCN channel complex),no change,no change,-2.05,-0.4
CNTN2 (contactin 2),no change,no change,-2.86,0.75
ASCL1 (achaete-scute family bHLH transcription factor 1),no change,no change,0.01,-0.91
MEIOC (meiosis specific with coiled-coil domain),no change,no change,1,-0.5
UNC5A (unc-5 netrin receptor A),no change,no change,0.06,0.52
TP53AIP1 (tumor protein p53 regulated apoptosis inducing protein 1),no change,no change,0.55,3.71
HIC1 (HIC ZBTB transcriptional repressor 1),no change,no change,0.29,-0.7
TTLL8 (tubulin tyrosine ligase like 8),no change,no change,-2.02,3.65
ERGIC1 (endoplasmic reticulum-golgi intermediate compartment 1),no change,no change,0.55,0.66
DEFB104A (defensin beta 104A),no change,no change,-0.84,-0.59
GAPVD1 (GTPase activating protein and VPS9 domains 1),no change,no change,1,-0.48
